According to patent US10676507B2 (GemVax & KAEL CO., LTD., priority 2015, dated 2020):

Assay: general procedure: Fmoc solid-phase peptide synthesis; 2-chloro-Trityl Resin; HBTU/HOBt/NMM
Conditions: whole synthesis, analytical HPLC

With ALSSRLRA the “final HPLC purity” value was 95% purity or higher.

End groups of sequences in plain letters are not given here.
